Data: PubChem BioAssay AID1487 (National Center for Advancing Translational Sciences (NCATS), 2009)
The whole screen tested about 200,000 compounds, of which about 25 (0.01%) were called active. Inconclusive results, whose numbers are uncertain, are shown with a selection of clear calls. Calls come from the whole dose curve; as a rule, active = well fitted inhibition curve with a large enough effect in the signal ratio, with a control signal flat (not every such curve was filed as active); inconclusive = small, poorly fitted or top-dose-only effect, or effect the other way, or a change in a side signal; inactive = flat fitted curve, though single readings scatter; the % refers to the signal ratio. Potencies of inconclusive entries are doubtful fits and often do not repeat.
% is set by controls: 0 for no effect and ±100 for the full control effect; potency is the fitted concentration of half-maximal effect.

Assay: qHTS Assay for Modulators of Lamin A Splicing
Settings: HeLa LMNA splicing GFP/RFP minigene ratio, 48 h; ratio change, negative = inhibition: at 46.1 µM (top of the series) unless noted
Method in brief: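 S3 HeLa stable clones carrying a lamin A-EGFP splicing minigene plus DsRed2 were seeded at 600 cells/well in Opti-MEM with 2% FBS, pin-dosed and incubated 48 h at 37°C. Acumen cytometry (488 nm) gave the GFP/RFP total-intensity ratio.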
With `Cc1ccc(NC(=O)CSc2nc3c(cc2C#N)C(=O)CCC3)cc1S(=O)(=O)N(C)C` the Potency was inconclusive: 22.4 µM [falling, single point].
With `COc1ccc(CNC(=O)COC(=O)c2ccc(Br)cc2)cc1` the “ratio change, negative = inhibition” value was inactive: -8.66% [at 46 µM].
In the case of `CCOC(=O)C1=C(C)N=C2c3ccccc3C(=O)C2C1c1ccc(Br)cc1` (configuration not stated), the Potency is reported as inconclusive: 25.1 µM [inhibitor, single point].
With `Cc1cc(C)n(CC(=O)Nc2cc(F)ccc2F)c(=O)c1C#N` the ratio change, negative = inhibition was inconclusive: 17.5% [at 46 µM].
In the case of `O=C(O)c1ccc(CSc2nnc(COc3ccc(Cl)cc3Cl)o2)cc1`, the “ratio change, negative = inhibition” value is reported as inactive: 11.5%.
With `COc1cccc(NC(=O)C(C)SCc2ccccc2)c1` (configuration not stated) the ratio change, negative = inhibition was inconclusive: 17.4% [at 46 µM].
In the case of `CCCc1cc2c(=O)c(-c3cscn3)c(C(=O)OCC)oc2cc1O`, the “ratio change, negative = inhibition” value is reported as inactive: -6.16% [at 46 µM].
In the case of `O=C1c2ccccc2C(=O)N1CCCCSc1nc2ccccc2c(=O)n1CCCN1CCOCC1`, the ratio change, negative = inhibition is reported as inconclusive: 7.25% [at 46 µM].
For `CCc1ccccc1NC(=O)Cn1c(=O)n(Cc2ccccc2)c(=O)c2c(C)c(C(=O)N(C)C)sc21`, the “ratio change, negative = inhibition” value was inactive: 25.6% [at 46 µM].
With `Cn1c(SCC(=O)NC2CCCCC2)nnc1-c1cc2cc(Cl)ccc2o1` the “ratio change, negative = inhibition” value was inactive: 4.36%.
In the case of `COc1ccc(NC(=O)C2OC3OC(C)(C)OC3C3OC(C)(C)OC23)cc1` (configuration not stated), the ratio change, negative = inhibition is reported as inconclusive: -2.64%.
With `Cc1ccccc1-c1ccc(Nc2ccc(C(=O)N3CCOCC3)cc2)nn1` the ratio change, negative = inhibition was inconclusive: -2.63%.
With `COc1ccc(-n2c(C)cc(/C=C(\C#N)C(=O)NCc3ccco3)c2C)cc1` the “ratio change, negative = inhibition” value was inactive: 11.4%.
In the case of `CCOC(=O)C1CCN(C(=O)CSc2n[nH]c(=O)[nH]c2=O)CC1`, the “ratio change, negative = inhibition” value is reported as inactive: -1.97%.
For `COc1cc(C(=O)NCc2ccc(C)cc2)ccc1OC(F)F`, the ratio change, negative = inhibition was inconclusive: -24.4%.
For `Cc1ccc(S(=O)(=O)Cc2cc(-c3ccc(Cl)cc3)no2)cc1`, the ratio change, negative = inhibition was inconclusive: -35.3% [at 46 µM].
With `CC(=O)NC(NC(=S)Nc1ccc(N=Nc2ccccc2)cc1)C(Cl)(Cl)Cl` (configuration not stated) the Potency was inconclusive: 35.5 µM [cytotoxic, single point].
In the case of `Cc1cc(C)n2nc(-c3ccsc3-n3c(C)ccc3C)cc2n1`, the ratio change, negative = inhibition is reported as inconclusive: 6.34%.
For `CC(=O)Nc1ccc(Nc2c3ccccc3nc3ccccc23)cc1`, the Potency was inconclusive: 2.82 µM [inhibitor, partial curve].
With `OCCCN=c1cc(-c2ccccc2)oc2ccc(Cl)cc12` the Potency was inconclusive: 35.5 µM [falling, single point].
For `COc1cc(NS(=O)(=O)c2ccc(N/C=C(\C#N)c3nc4cc(Cl)ccc4o3)cc2)nc(OC)n1`, the ratio change, negative = inhibition was inconclusive: -42.6%.
With `CC1CCN(S(=O)(=O)c2cc(C(=O)NCc3ccc(N(C)C)cc3)n(C)c2)CC1` the ratio change, negative = inhibition was inconclusive: -10.8% [at 46 µM].
